Assay results taken from paper PMC12574921.
These are yes or no findings as the source states them, for the method shown. Binding seen in cells or lysates may run through a third protein. Some entries that bind do so weakly or less than the wild type. For some of these results: Sequences can lack the tags named with a protein. Values belong to the molecule of their own block, whether it stands above or below them.

By UniProt entry, the sequences of proteins in these tests, tags left out.
UniProt P51116: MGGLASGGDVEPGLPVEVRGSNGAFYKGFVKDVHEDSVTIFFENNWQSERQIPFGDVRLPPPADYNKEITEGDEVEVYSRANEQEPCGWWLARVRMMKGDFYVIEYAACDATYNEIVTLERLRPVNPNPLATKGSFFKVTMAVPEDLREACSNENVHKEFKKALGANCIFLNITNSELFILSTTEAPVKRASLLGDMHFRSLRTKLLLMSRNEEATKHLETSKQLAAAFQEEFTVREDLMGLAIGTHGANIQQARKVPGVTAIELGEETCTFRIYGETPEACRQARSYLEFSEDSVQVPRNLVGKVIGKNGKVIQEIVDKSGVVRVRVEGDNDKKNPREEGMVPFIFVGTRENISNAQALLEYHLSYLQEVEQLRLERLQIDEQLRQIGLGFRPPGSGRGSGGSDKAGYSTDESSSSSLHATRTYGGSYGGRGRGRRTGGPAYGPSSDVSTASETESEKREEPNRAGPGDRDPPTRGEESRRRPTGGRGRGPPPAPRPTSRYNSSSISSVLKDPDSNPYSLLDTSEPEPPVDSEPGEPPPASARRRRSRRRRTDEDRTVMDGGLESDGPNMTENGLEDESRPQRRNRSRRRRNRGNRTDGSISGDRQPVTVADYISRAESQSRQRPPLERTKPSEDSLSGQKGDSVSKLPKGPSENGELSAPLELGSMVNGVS
UniProt P17844: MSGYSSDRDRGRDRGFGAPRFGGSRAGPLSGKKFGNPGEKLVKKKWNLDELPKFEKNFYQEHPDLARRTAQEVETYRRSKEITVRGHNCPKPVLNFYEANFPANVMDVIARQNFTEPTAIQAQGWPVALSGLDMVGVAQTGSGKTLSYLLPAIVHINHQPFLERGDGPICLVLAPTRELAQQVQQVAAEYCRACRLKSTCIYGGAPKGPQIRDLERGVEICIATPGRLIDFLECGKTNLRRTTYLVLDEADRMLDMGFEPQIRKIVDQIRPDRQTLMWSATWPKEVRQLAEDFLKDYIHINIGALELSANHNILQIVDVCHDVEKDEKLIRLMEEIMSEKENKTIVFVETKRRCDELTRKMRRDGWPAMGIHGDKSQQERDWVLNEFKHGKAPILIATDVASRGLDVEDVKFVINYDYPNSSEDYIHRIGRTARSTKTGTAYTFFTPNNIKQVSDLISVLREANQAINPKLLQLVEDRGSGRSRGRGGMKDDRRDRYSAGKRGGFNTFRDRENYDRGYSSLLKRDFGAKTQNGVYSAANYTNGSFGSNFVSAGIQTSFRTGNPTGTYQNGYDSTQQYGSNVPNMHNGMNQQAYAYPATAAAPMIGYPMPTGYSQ
UniProt Q92841: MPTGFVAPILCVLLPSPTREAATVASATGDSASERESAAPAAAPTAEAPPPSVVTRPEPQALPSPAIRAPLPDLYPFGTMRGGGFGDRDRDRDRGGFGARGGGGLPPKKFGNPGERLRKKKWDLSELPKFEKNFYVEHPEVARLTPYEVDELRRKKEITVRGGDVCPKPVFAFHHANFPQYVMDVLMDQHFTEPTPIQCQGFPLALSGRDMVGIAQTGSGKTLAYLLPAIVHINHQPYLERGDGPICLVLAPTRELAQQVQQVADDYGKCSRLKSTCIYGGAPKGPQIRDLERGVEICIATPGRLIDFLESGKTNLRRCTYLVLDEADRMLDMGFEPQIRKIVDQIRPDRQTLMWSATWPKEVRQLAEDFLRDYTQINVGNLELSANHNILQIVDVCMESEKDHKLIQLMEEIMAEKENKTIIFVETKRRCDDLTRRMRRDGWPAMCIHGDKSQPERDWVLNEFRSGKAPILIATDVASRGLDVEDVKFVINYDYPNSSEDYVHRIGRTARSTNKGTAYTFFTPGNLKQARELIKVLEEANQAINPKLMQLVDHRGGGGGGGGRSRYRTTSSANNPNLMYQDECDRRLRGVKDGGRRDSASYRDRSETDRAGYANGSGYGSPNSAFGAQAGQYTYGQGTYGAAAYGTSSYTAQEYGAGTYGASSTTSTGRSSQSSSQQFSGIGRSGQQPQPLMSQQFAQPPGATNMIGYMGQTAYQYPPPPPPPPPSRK
UniProt P51114: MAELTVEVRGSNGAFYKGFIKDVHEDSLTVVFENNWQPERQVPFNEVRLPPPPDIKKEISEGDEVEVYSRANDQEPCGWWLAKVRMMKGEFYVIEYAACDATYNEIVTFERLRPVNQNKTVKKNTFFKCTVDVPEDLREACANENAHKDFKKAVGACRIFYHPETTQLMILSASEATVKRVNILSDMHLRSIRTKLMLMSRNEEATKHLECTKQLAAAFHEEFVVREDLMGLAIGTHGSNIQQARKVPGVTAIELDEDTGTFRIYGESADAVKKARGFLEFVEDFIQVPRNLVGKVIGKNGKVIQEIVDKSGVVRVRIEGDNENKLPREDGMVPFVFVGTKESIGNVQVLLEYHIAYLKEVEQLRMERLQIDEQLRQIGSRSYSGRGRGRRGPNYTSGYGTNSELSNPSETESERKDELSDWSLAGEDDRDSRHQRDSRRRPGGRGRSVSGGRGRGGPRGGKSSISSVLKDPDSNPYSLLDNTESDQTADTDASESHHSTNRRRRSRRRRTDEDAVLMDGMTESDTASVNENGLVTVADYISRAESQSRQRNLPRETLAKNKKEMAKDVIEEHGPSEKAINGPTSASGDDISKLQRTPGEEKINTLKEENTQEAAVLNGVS

Key:
FLAG-ZRF1 (human) = biological target: T1, FLAG-ZRF1 (human) (UniProt Q99543); assay: co-IP; HEK293T cells, transfected; FLAG-tagged protein as bait, tagged partner detected by immunoblot
T1 sequence: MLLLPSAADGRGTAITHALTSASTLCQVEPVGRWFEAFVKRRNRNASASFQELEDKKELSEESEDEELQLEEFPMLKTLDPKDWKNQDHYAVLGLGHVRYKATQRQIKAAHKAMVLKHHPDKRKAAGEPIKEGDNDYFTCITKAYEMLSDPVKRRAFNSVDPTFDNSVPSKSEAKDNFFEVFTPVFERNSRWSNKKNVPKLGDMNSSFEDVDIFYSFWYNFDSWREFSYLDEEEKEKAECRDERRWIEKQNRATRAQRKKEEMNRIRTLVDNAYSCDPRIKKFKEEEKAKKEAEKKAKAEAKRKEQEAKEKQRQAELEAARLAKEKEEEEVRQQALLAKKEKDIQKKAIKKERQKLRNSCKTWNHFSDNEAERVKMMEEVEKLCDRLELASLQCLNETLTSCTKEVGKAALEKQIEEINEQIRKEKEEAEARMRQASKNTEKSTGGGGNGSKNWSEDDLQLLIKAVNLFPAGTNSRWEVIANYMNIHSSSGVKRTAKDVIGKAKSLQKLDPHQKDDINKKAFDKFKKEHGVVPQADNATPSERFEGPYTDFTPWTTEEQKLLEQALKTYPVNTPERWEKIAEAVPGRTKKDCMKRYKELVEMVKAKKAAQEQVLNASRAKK

[1] = biological target: T2, ZRF1 (endogenous) (human (endogenous in HEK293T)) (UniProt Q99543); assay: co-IP; IP with a ZRF1 antibody of endogenous ZRF1 from HEK293T cells, immunoblot for FMRP, FXR1, FXR2; IgG as negative control
T2 sequence: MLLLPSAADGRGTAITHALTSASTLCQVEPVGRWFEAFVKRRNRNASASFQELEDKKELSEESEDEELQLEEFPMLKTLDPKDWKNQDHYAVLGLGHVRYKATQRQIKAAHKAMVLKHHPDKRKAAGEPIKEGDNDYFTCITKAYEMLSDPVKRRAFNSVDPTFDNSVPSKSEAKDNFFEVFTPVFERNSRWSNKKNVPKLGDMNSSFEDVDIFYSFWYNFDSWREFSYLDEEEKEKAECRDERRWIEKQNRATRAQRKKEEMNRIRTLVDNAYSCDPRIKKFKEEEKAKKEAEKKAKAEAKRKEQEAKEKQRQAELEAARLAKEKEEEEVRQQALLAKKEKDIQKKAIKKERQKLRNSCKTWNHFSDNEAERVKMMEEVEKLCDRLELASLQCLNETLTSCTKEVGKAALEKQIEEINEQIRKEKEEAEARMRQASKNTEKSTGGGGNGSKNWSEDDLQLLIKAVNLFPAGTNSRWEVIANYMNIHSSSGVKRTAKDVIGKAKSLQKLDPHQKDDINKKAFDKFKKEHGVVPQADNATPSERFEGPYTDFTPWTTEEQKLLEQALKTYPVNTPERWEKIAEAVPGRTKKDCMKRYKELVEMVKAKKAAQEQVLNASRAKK

FLAG-AGO1 = FLAG-AGO1 (UniProt Q9UL18); assay: co-IP; HEK293T cells, transfected; FLAG-tagged protein as bait, tagged partner detected by immunoblot
SERBP1-GFP (human) = biological target: T3, SERBP1-GFP (human) (UniProt Q8NC51); assay: co-IP; HEK293T cells, transfected; reciprocal IP by the GFP-tagged partner, FLAG-ZRF1 detected
T3 sequence: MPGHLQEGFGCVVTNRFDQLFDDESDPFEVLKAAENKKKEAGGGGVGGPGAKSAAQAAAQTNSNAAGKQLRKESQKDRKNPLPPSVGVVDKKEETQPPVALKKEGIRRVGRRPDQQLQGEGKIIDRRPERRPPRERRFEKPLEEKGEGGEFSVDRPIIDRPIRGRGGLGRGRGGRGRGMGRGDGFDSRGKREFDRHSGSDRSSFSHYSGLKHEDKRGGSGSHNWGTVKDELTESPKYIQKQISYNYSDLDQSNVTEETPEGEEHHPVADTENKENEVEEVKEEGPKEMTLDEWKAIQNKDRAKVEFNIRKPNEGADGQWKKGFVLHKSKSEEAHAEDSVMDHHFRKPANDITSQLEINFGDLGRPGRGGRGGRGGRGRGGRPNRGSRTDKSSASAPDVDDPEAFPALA

Molecule: FXR2 (endogenous) (from UniProt P51116 1-673)
binding [1]: binds

B2: ZRF1-GFP (protein, UniProt Q99543 1-621)
chain: MLLLPSAADGRGTAITHALTSASTLCQVEPVGRWFEAFVKRRNRNASASFQELEDKKELSEESEDEELQLEEFPMLKTLDPKDWKNQDHYAVLGLGHVRYKATQRQIKAAHKAMVLKHHPDKRKAAGEPIKEGDNDYFTCITKAYEMLSDPVKRRAFNSVDPTFDNSVPSKSEAKDNFFEVFTPVFERNSRWSNKKNVPKLGDMNSSFEDVDIFYSFWYNFDSWREFSYLDEEEKEKAECRDERRWIEKQNRATRAQRKKEEMNRIRTLVDNAYSCDPRIKKFKEEEKAKKEAEKKAKAEAKRKEQEAKEKQRQAELEAARLAKEKEEEEVRQQALLAKKEKDIQKKAIKKERQKLRNSCKTWNHFSDNEAERVKMMEEVEKLCDRLELASLQCLNETLTSCTKEVGKAALEKQIEEINEQIRKEKEEAEARMRQASKNTEKSTGGGGNGSKNWSEDDLQLLIKAVNLFPAGTNSRWEVIANYMNIHSSSGVKRTAKDVIGKAKSLQKLDPHQKDDINKKAFDKFKKEHGVVPQADNATPSERFEGPYTDFTPWTTEEQKLLEQALKTYPVNTPERWEKIAEAVPGRTKKDCMKRYKELVEMVKAKKAAQEQVLNASRAKK
binding (FLAG-AGO1): binds

B3: FLAG-ZRF1 (protein, UniProt Q99543 1-621)
chain: MLLLPSAADGRGTAITHALTSASTLCQVEPVGRWFEAFVKRRNRNASASFQELEDKKELSEESEDEELQLEEFPMLKTLDPKDWKNQDHYAVLGLGHVRYKATQRQIKAAHKAMVLKHHPDKRKAAGEPIKEGDNDYFTCITKAYEMLSDPVKRRAFNSVDPTFDNSVPSKSEAKDNFFEVFTPVFERNSRWSNKKNVPKLGDMNSSFEDVDIFYSFWYNFDSWREFSYLDEEEKEKAECRDERRWIEKQNRATRAQRKKEEMNRIRTLVDNAYSCDPRIKKFKEEEKAKKEAEKKAKAEAKRKEQEAKEKQRQAELEAARLAKEKEEEEVRQQALLAKKEKDIQKKAIKKERQKLRNSCKTWNHFSDNEAERVKMMEEVEKLCDRLELASLQCLNETLTSCTKEVGKAALEKQIEEINEQIRKEKEEAEARMRQASKNTEKSTGGGGNGSKNWSEDDLQLLIKAVNLFPAGTNSRWEVIANYMNIHSSSGVKRTAKDVIGKAKSLQKLDPHQKDDINKKAFDKFKKEHGVVPQADNATPSERFEGPYTDFTPWTTEEQKLLEQALKTYPVNTPERWEKIAEAVPGRTKKDCMKRYKELVEMVKAKKAAQEQVLNASRAKK
binding (SERBP1-GFP (human)): binds

Continued, values first:

binding (FLAG-ZRF1 (human)): binds
Molecule: DDX5-GFP (from UniProt P17844 1-614)

binding (FLAG-ZRF1 (human)): binds
Molecule: DDX17-Myc (from UniProt Q92841 1-729)

binding [1]: binds
Molecule: FXR1 (endogenous) (from UniProt P51114 1-621)

binding (FLAG-ZRF1 (human)): binds
B1: DDX21-V5 (protein, UniProt Q9NR30 1-783)
chain: MPGKLRSDAGLESDTAMKKGETLRKQTEEKEKKEKPKSDKTEEIAEEEETVFPKAKQVKKKAEPSEVDMNSPKSKKAKKKEEPSQNDISPKTKSLRKKKEPIEKKVVSSKTKKVTKNEEPSEEEIDAPKPKKMKKEKEMNGETREKSPKLKNGFPHPEPDCNPSEAASEESNSEIEQEIPVEQKEGAFSNFPISEETIKLLKGRGVTFLFPIQAKTFHHVYSGKDLIAQARTGTGKTFSFAIPLIEKLHGELQDRKRGRAPQVLVLAPTRELANQVSKDFSDITKKLSVACFYGGTPYGGQFERMRNGIDILVGTPGRIKDHIQNGKLDLTKLKHVVLDEVDQMLDMGFADQVEEILSVAYKKDSEDNPQTLLFSATCPHWVFNVAKKYMKSTYEQVDLIGKKTQKTAITVEHLAIKCHWTQRAAVIGDVIRVYSGHQGRTIIFCETKKEAQELSQNSAIKQDAQSLHGDIPQKQREITLKGFRNGSFGVLVATNVAARGLDIPEVDLVIQSSPPKDVESYIHRSGRTGRAGRTGVCICFYQHKEEYQLVQVEQKAGIKFKRIGVPSATEIIKASSKDAIRLLDSVPPTAISHFKQSAEKLIEEKGAVEALAAALAHISGATSVDQRSLINSNVGFVTMILQCSIEMPNISYAWKELKEQLGEEIDSKVKGMVFLKGKLGVCFDVPTASVTEIQEKWHDSRRWQLSVATEQPELEGPREGYGGFRGQREGSRGFRGQRDGNRRFRGQREGSRGPRGQRSGGGNKSNRSQNKGQKRSFSKAFGQ
